The list shows a part of the results.
These targets were tested with Cn1cc(CNCC2CCN(c3ncc(C(=O)NO)cn3)CC2)c2ccccc21 [quisinostat] (assay: log2 fold change, soluble protein after heating vs DMSO (PISA); higher = thermal stabilisation; K562 lysate, 10 uM; active = over 0.2 and 3.5 SD of the protein, either way, in both replicates (recomputed)).
Summary of the method: (§1)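 A 30 min treatment with 10 μM compound was applied to crude K562 extract at 1 mg/mL protein in PBS pH 7.4 with 1 mM MgCl2. Heating for 3 min spanned 48°C-58°C, after which aliquots were pooled, adjusted to 0.5% NP-40 at 4°C and spun at 21,000xg for 90 min. TMTpro 16plex LC-MS/MS of the supernatant, with channel sums equalised, gave values recorded as log-two fold change in thermal stability against solvent controls, from duplicates.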

By UniProt entry, the sequences of proteins in these tests, tags left out. Where a name states a change or a piece, a line headed by the entry shows the natural chain unless it says otherwise.
UniProt P04040: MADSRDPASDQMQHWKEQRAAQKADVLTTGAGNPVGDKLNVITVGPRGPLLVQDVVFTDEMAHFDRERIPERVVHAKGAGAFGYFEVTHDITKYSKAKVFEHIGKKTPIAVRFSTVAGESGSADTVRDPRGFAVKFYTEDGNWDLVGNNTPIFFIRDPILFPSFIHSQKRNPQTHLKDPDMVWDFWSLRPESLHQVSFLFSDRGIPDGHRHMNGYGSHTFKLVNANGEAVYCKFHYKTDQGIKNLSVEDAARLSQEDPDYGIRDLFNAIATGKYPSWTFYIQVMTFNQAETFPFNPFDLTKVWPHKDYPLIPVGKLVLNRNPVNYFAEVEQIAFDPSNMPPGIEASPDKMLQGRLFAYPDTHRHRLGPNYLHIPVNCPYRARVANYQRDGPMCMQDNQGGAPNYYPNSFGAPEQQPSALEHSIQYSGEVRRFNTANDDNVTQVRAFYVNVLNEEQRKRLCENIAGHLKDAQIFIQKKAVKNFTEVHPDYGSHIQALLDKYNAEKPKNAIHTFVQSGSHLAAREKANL
UniProt P40227, whole entry, looked up: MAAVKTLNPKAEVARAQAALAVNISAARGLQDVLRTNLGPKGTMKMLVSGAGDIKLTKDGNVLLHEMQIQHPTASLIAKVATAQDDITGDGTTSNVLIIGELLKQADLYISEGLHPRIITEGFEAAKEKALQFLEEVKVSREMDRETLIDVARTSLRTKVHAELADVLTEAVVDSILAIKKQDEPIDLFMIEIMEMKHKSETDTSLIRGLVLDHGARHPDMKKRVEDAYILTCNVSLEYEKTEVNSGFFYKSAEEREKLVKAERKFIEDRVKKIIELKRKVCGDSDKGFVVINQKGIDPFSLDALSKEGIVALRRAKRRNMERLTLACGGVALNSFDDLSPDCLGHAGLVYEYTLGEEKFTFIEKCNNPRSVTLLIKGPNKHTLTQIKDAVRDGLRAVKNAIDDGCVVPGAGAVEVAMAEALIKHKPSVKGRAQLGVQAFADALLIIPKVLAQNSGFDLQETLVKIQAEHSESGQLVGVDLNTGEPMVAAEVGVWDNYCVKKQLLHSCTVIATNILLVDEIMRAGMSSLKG
UniProt O75909: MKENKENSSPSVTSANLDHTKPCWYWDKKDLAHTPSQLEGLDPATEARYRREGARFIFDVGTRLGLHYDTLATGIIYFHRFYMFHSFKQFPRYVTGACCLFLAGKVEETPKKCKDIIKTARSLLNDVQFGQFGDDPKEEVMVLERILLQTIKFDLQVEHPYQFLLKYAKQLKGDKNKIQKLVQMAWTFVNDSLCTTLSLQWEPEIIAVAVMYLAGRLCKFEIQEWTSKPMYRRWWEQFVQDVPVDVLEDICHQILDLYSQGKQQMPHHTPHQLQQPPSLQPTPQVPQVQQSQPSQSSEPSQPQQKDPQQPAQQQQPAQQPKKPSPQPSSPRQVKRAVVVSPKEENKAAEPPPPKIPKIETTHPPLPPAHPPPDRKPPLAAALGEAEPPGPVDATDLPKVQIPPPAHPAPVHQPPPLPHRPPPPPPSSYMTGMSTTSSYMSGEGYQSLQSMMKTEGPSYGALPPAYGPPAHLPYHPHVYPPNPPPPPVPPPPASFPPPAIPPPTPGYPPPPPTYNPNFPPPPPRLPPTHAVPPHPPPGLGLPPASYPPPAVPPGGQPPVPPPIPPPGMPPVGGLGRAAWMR
UniProt Q8WUD4: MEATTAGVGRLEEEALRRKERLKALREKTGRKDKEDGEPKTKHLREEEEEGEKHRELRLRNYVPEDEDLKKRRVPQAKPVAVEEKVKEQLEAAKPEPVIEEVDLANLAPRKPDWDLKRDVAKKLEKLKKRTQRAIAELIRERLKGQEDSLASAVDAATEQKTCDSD
UniProt Q9P219: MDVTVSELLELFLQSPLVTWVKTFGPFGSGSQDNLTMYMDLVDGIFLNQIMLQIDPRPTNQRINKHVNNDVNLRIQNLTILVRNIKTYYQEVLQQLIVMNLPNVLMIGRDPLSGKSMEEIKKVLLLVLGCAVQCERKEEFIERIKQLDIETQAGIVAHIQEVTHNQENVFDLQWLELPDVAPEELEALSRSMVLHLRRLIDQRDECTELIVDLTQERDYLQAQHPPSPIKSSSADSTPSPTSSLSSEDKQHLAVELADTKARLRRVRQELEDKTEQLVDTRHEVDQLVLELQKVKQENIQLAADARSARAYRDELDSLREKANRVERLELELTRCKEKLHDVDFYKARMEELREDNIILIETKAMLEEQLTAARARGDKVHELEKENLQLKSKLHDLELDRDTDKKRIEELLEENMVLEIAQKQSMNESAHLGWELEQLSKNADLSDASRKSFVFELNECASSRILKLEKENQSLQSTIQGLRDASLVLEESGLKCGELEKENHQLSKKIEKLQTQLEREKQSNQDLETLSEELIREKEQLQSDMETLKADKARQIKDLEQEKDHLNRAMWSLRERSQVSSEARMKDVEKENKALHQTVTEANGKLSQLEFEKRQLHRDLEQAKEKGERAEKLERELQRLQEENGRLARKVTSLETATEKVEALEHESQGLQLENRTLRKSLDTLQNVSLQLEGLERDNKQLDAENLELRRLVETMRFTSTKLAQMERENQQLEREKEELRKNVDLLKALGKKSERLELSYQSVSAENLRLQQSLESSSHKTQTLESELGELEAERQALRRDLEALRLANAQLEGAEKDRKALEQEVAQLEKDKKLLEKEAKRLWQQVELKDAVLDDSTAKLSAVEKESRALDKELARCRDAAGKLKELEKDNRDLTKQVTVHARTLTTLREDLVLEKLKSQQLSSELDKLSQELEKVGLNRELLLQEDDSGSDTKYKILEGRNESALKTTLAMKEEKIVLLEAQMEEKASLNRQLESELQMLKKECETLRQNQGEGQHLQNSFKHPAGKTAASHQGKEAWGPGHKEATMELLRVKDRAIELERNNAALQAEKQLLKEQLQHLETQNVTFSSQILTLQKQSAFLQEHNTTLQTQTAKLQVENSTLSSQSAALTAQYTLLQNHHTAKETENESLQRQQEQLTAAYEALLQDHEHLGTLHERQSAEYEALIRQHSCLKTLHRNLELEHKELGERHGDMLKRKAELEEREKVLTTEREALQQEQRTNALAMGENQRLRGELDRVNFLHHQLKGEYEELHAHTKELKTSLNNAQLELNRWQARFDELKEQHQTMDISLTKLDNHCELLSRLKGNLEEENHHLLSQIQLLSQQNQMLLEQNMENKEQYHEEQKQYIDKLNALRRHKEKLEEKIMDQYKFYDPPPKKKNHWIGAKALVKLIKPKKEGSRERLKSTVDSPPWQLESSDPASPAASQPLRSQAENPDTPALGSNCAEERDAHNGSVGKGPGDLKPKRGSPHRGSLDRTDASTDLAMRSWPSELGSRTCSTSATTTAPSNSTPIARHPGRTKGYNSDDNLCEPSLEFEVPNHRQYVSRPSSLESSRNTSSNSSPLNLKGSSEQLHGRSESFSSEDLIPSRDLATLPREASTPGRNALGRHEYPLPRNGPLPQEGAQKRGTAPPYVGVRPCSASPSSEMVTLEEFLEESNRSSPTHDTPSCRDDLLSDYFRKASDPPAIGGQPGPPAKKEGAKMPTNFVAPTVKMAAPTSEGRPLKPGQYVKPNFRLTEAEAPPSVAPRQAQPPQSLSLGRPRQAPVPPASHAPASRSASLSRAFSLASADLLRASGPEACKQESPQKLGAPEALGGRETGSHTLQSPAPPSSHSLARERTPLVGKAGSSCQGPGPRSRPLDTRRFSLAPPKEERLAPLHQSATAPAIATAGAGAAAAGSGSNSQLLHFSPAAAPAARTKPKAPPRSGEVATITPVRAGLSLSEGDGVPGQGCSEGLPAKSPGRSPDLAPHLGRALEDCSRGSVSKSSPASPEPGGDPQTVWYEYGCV
UniProt Q96F63: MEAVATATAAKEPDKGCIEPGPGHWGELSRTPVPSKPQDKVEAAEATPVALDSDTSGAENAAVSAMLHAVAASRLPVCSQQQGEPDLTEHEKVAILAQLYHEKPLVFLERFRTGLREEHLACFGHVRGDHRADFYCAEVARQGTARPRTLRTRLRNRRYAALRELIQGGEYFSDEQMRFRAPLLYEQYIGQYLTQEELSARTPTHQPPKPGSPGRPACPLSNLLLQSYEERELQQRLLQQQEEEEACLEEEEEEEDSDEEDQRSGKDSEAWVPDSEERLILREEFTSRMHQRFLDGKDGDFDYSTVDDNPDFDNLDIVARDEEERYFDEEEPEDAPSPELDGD
UniProt Q13191, whole entry, looked up: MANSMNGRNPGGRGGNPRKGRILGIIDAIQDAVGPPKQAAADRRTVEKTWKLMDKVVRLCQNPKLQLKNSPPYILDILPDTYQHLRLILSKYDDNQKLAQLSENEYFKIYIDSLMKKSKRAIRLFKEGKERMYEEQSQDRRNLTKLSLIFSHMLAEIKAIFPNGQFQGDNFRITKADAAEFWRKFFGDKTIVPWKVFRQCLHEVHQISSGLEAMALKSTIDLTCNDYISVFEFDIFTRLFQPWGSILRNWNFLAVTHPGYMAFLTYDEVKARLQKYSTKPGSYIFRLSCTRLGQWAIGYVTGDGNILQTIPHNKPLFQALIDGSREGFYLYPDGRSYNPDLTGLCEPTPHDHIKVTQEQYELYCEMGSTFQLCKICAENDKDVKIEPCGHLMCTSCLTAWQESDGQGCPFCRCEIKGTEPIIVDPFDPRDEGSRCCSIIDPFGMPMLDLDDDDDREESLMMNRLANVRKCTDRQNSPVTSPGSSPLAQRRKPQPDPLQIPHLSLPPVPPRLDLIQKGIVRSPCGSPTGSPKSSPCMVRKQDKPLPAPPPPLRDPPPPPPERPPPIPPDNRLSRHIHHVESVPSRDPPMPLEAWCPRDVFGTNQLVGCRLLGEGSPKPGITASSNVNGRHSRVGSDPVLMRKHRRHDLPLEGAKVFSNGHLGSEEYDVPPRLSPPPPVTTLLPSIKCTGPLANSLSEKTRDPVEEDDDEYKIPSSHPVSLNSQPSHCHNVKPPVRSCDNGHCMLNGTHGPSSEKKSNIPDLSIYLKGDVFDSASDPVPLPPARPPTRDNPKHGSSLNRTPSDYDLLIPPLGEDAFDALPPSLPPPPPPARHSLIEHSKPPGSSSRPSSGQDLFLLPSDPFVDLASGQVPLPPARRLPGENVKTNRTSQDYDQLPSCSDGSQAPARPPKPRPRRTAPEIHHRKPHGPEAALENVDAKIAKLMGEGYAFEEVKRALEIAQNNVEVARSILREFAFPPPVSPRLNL
UniProt Q6NZI2: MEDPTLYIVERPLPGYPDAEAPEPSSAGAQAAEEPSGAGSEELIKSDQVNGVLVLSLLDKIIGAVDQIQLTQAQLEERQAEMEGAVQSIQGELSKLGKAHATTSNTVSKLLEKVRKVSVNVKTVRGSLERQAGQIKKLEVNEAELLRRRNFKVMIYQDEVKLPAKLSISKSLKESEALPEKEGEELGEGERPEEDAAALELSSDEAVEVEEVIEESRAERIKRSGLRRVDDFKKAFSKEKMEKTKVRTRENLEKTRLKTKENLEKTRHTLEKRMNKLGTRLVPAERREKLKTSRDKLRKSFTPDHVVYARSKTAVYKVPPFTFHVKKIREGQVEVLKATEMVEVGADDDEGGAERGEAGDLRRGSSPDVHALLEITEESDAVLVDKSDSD
UniProt Q16204: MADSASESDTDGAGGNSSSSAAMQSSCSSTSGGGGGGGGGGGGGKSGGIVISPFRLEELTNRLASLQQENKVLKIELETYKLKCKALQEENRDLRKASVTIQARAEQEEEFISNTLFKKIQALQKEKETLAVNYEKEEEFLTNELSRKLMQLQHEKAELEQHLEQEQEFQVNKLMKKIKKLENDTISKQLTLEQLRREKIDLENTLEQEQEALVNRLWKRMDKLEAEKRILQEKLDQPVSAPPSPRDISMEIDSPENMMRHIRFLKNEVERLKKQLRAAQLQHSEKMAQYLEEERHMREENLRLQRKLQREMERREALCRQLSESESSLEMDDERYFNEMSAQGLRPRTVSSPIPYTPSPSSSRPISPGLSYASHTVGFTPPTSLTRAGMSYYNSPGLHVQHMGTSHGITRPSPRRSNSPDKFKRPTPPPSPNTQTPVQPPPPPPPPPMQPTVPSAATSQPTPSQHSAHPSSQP
UniProt P48643, whole entry, looked up: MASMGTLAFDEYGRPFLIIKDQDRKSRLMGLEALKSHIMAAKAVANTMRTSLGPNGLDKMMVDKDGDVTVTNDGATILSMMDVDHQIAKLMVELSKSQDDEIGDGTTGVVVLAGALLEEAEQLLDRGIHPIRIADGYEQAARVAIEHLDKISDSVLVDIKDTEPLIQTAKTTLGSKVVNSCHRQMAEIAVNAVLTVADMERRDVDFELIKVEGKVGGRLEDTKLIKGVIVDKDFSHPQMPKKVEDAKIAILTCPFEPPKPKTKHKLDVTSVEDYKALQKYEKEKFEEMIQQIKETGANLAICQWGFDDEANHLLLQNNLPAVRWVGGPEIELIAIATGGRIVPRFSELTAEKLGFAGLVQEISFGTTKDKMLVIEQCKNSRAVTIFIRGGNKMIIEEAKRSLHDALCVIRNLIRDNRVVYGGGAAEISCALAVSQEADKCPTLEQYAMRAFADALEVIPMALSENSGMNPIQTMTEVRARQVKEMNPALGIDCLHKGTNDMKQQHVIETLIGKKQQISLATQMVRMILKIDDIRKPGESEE

Row | Target | log2 fold change
1 | CD46 isoform 2 (UniProt P15529) | inactive: -0.071
2 | CCNB2 (UniProt O95067) | inactive: -0.081
3 | CBX3 (UniProt Q13185) | inactive: 0.142
4 | CCT2 (UniProt P78371) | inactive: 0.042
5 | CASP3 (UniProt P42574) | inactive: -0.029
6 | CCNB1 (UniProt P14635) | inactive: 0.035
7 | CAT (UniProt P04040) | inactive: -0.017
8 | CCT6A (UniProt P40227) | inactive: 0.037
9 | CASP9 (UniProt P55211) | inactive: -0.056
10 | CCDC58 (UniProt Q4VC31) | inactive: 0.126
11 | CD47 (UniProt Q08722) | inactive: -0.067
12 | CCNK isoform 4 (UniProt O75909) | inactive: 0.009
13 | CCDC12 (UniProt Q8WUD4) | inactive: -0.016
14 | CCDC93 (UniProt Q567U6) | inactive: -0.017
15 | CBX4 (UniProt O00257) | inactive: -0.075
16 | CCDC25 (UniProt Q86WR0) | inactive: -0.039
17 | CCDC88A (UniProt Q3V6T2) | inactive: -0.041

Row | Target | log2 fold change
18 | CCDC88C (UniProt Q9P219) | inactive: 0.021
19 | CCDC22 (UniProt O60826) | inactive: -0.006
20 | CCDC97 (UniProt Q96F63) | inactive: -0.018
21 | CCNYL1 (UniProt Q8N7R7) | inactive: -0.078
22 | CBLB (UniProt Q13191) | inactive: -0.071
23 | CAVIN1 (UniProt Q6NZI2) | inactive: 0.003
24 | CBWD5 (UniProt Q5RIA9) | inactive: -0.068
25 | CARS2 (UniProt Q9HA77) | inactive: 0.036
26 | CCAR1 (UniProt Q8IX12) | inactive: 0.029
27 | CCNDBP1 (UniProt O95273) | inactive: -0.02
28 | CCS (UniProt O14618) | inactive: -0.061
29 | CD151 (UniProt P48509) | inactive: -0.26
30 | CCDC6 (UniProt Q16204) | inactive: 0
31 | CCDC117 (UniProt Q8IWD4) | inactive: -0.143
32 | CCT5 (UniProt P48643) | inactive: 0.038
33 | CARHSP1 (UniProt Q9Y2V2) | inactive: -0.006

What follows are targets tested with Cn1cncc1[C@@](N)(c1ccc(Cl)cc1)c1ccc2c(c1)c(-c1cccc(Cl)c1)cc(=O)n2C [tipifarnib] in the same assay as above.
Summary of the method: as §1

Row | Target | log2 fold change
34 | CD46 isoform 2 (UniProt P15529) | inactive: -0.039
35 | CCNB2 (UniProt O95067) | inactive: -0.029
36 | CBX3 (UniProt Q13185) | inactive: 0.033
37 | CCT2 (UniProt P78371) | inactive: 0.031
38 | CASP3 (UniProt P42574) | inactive: -0.033
39 | CCNB1 (UniProt P14635) | inactive: -0.005
40 | CAT (UniProt P04040) | inactive: -0.003
41 | CCT6A (UniProt P40227) | inactive: 0.014
42 | CASP9 (UniProt P55211) | inactive: 0.005
43 | CCDC58 (UniProt Q4VC31) | inactive: 0.061
44 | CD47 (UniProt Q08722) | inactive: -0.001
45 | CCNK isoform 4 (UniProt O75909) | inactive: -0.004
46 | CCDC12 (UniProt Q8WUD4) | inactive: -0.024
47 | CCDC93 (UniProt Q567U6) | inactive: -0.024
48 | CBX4 (UniProt O00257) | inactive: 0.02
49 | CCDC25 (UniProt Q86WR0) | inactive: 0.002
